Laboratory results reported in doi:10.1101/230706.
Results are given in words; binding and its absence hold for the method and conditions named. Binding seen in cells or lysates may run through a third protein. Some binding calls cover weakened binding; strength is not graded here.

Chains of the proteins cited; added tags and fusions are not shown.
UniProt Q14980: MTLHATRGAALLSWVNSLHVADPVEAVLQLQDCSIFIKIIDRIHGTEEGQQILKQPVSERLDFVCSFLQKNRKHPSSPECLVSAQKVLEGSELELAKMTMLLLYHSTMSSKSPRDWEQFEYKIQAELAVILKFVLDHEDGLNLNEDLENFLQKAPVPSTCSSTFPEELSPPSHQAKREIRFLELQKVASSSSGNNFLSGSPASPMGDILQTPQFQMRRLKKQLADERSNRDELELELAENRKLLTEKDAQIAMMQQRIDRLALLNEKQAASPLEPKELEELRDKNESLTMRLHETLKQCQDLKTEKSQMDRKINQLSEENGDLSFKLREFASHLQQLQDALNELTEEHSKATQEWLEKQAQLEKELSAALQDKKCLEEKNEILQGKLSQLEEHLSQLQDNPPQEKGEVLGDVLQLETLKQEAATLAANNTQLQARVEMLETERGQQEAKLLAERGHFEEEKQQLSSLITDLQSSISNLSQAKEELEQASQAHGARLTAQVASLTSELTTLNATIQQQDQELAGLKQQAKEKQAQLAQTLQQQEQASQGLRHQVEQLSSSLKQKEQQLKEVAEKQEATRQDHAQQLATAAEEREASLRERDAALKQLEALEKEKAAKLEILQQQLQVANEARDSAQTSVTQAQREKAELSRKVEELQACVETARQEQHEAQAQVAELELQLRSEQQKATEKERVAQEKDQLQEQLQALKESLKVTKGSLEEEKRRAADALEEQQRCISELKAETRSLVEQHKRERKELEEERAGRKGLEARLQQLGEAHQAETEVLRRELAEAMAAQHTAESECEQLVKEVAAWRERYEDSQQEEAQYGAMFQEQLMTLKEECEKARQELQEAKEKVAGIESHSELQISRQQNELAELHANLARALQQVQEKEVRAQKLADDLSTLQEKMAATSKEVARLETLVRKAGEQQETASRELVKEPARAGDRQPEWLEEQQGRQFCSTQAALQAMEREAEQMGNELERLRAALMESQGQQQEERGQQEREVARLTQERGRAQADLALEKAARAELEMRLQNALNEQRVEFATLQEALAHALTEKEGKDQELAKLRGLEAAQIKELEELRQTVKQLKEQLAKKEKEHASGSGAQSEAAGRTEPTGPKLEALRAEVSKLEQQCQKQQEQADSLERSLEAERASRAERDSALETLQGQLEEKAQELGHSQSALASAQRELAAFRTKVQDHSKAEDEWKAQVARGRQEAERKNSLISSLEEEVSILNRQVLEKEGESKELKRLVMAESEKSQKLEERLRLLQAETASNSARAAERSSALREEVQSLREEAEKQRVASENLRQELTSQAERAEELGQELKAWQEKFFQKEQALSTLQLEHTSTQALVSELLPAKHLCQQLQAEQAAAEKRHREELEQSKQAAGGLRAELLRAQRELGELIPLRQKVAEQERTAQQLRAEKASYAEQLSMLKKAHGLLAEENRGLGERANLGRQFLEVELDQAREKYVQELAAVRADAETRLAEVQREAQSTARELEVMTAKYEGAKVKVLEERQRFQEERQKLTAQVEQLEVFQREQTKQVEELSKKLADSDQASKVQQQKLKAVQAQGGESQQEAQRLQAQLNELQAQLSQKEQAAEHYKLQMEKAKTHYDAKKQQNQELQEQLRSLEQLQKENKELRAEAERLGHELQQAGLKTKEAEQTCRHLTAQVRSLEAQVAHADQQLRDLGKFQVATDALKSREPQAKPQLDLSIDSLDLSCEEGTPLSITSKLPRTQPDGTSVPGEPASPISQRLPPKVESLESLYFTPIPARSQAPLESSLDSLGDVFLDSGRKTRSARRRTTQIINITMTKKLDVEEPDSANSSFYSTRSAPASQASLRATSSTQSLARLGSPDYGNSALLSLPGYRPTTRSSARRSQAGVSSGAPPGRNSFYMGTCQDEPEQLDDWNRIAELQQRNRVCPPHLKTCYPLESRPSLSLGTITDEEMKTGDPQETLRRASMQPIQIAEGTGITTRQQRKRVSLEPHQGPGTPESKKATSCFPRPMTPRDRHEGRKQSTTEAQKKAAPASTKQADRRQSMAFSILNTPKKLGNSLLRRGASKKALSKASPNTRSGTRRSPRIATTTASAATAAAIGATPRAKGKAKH
UniProt Q12888: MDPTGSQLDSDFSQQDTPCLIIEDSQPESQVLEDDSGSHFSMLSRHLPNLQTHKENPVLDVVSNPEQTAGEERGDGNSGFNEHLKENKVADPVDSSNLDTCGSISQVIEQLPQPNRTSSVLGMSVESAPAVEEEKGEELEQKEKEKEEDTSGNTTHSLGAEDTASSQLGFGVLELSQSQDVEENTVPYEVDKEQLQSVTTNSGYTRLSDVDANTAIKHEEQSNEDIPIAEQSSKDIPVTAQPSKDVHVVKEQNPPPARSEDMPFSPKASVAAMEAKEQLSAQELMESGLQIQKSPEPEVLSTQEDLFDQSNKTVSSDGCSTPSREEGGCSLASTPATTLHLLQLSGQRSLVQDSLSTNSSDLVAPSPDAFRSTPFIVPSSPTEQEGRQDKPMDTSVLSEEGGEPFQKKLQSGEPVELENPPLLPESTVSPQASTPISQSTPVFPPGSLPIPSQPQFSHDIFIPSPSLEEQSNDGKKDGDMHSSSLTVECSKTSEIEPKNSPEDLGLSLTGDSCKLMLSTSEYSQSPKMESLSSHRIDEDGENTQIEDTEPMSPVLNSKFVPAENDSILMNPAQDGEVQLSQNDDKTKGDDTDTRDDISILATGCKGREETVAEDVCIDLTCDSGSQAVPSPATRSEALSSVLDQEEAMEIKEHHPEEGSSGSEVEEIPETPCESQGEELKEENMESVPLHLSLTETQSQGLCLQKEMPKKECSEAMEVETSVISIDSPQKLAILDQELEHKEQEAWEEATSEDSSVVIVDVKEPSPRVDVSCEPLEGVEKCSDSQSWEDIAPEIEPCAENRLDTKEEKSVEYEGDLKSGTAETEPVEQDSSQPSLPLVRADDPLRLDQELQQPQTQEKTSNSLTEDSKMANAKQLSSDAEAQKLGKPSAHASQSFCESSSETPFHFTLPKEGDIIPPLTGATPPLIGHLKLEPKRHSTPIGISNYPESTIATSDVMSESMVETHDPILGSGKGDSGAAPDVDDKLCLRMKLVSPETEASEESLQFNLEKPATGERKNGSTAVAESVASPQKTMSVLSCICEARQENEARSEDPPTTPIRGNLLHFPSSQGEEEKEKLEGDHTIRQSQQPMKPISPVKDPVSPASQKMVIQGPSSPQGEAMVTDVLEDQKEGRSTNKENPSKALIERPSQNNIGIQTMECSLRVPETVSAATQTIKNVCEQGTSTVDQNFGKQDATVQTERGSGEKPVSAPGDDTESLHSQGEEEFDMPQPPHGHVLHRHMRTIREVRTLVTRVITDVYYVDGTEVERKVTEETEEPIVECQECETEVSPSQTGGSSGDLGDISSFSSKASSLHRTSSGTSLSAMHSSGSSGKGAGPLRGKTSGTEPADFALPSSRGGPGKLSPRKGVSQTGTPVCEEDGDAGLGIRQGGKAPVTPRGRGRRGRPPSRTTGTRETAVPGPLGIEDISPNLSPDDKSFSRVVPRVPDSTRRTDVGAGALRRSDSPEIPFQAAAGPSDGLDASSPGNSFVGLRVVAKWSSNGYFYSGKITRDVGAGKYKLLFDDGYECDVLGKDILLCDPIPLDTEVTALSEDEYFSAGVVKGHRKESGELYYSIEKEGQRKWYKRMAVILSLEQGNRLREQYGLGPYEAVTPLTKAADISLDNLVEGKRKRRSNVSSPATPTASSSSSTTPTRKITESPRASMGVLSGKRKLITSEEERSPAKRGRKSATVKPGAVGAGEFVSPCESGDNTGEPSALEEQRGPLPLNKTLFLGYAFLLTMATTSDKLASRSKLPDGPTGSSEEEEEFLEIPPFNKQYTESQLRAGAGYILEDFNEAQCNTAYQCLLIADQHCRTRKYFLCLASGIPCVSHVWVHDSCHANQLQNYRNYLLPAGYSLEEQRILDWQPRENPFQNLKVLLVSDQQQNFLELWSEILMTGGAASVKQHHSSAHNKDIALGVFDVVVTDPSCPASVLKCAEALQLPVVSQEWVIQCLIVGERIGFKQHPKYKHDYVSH

Tests used:
[1] = target: endogenous nuclear mitotic apparatus protein (NuMA) (human (endogenous in U2OS, HMT-3522 S1, T4-2 and MCF7)) (UniProt Q14980); assay: FRET or BRET
[2] = target: endogenous nuclear mitotic apparatus protein (NuMA) (human (endogenous in U2OS, HMT-3522 S1, T4-2 and MCF7)) (UniProt Q14980); assay: co-IP
GFP-53BP1 = GFP-53BP1 (UniProt Q12888); assay: FRET or BRET

Row | binding [1] | binding [2] | binding (GFP-53BP1) | Substance
1 | binds | binds |  | endogenous 53BP1 (from UniProt Q12888 1-1972)
2 |  |  | binds | mCherry-NuMA (from UniProt Q14980 1-2115)
